Among the data in article PMC10831563 are binding values, retold here.

Sequences of proteins named here, by UniProt entry; tags and fusion partners are left off. A change or cut given only in a name is not applied to a line headed by its entry.
UniProt P84022: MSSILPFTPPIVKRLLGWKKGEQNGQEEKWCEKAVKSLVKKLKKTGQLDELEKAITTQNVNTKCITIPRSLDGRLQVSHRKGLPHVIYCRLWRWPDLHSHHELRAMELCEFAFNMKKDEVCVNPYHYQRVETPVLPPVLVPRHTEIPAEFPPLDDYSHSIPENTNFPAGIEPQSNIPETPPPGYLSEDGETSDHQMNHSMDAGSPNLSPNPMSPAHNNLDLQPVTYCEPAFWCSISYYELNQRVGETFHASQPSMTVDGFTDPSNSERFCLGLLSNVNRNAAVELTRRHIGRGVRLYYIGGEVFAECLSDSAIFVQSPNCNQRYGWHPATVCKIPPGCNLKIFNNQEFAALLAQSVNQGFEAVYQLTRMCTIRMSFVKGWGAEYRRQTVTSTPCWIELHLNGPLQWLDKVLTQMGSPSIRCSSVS
UniProt Q15796: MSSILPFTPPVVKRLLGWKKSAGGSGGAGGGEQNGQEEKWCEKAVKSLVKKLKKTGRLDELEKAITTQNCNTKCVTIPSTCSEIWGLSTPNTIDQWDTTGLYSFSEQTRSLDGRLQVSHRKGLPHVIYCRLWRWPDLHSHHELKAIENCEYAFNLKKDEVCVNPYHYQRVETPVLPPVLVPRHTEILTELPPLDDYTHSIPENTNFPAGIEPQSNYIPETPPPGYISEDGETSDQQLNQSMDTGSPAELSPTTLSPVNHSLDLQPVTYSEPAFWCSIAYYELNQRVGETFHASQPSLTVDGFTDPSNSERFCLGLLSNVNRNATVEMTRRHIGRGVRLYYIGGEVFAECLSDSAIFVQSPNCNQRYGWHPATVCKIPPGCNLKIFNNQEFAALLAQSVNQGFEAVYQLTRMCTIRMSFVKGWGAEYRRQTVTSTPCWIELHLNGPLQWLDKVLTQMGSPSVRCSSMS
UniProt P03372: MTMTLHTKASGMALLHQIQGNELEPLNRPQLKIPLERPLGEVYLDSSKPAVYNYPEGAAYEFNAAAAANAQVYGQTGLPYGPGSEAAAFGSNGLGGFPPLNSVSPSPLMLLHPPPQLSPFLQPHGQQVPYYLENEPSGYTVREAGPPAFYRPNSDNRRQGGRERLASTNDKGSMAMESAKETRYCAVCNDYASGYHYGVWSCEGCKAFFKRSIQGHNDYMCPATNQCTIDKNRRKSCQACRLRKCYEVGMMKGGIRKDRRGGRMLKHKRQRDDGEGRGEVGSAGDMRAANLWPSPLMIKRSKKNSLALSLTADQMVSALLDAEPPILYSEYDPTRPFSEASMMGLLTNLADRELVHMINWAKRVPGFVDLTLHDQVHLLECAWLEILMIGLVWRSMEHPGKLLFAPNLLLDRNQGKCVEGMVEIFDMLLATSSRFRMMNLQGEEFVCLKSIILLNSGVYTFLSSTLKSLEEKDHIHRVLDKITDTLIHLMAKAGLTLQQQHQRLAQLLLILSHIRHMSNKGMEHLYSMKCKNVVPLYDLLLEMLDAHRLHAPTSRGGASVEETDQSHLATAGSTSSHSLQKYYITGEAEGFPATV

Results are given in words; binding and its absence hold for the method and conditions named. In cells and extracts the contact can be indirect. Some binding calls cover weakened binding; strength is not graded here.

Assay [1] concerns the target p-Smad3 (human (endogenous in MCF10A, MDA-MB231, BT549, MCF7 and T47D)) (UniProt P84022). Kind of assay: co-IP; endogenous proteins of T47D and MCF7 cells, with ERα shRNAs, in the presence of TGFβ2 (10 ng/mL) treatment (Figure 3K, Figure S3H); 'in the nucleus'.
For assay [2], the target named is phosphor-Smad2 (human (endogenous in MCF10A, MDA-MB231, BT549, MCF7 and T47D)) (UniProt Q15796). The assay is described as above.
For assay [3], the target named is p-Smad3 (human (endogenous in MCF10A, MDA-MB231, BT549, MCF7 and T47D)) (UniProt P84022). Kind of assay: co-IP; MCF10A (legend: HMLE), MDA-MB231 and BT549 cells transfected with ERα or Flag-ERα, with/without TGFβ2 (10 ng/mL) treatment (Figure 3J).
Assay [4] has as its target phosphor-Smad2 (human (endogenous in MCF10A, MDA-MB231, BT549, MCF7 and T47D)) (UniProt Q15796). The description is as above.
Assay [5] deals with Smad2 (human (endogenous in MCF7 and T47D)) (UniProt Q15796). Nature of the assay: co-IP; MCF7 and T47D cells, upon TGFβ2 treatment (Figure S3A); which protein was precipitated is not told.
In assay [6] the target is Smad3 (human (endogenous in MCF7 and T47D)) (UniProt P84022). Described as above.

As for “Endogenous ERα of MCF7 and T47D cells (from UniProt P03372 1-595)”, the binding entry in assay [1] and in assay [2] was “binds” each time.

For the substance “ERα expressed in MCF10A, MDA-MB231 and BT549 cells (from UniProt P03372 1-595)”, the binding result in assay [3] and in assay [4] was “binds” each time.

Regarding “ERα in MCF7 and T47D cells (printed as 'expressed ERα', Figure S3A) (from UniProt P03372 1-595)”, the binding entry in assay [5] and in assay [6] was “binds” throughout.
